Measured values published in US20020045566A1, “Selective maxi-K potassium channel openers functional under conditions of high intracellular calcium concentration, methods and uses thereof” (priority 2000, published 2002).
At least one structure is not confirmed: it was looked up by name or label, or the drawing left a doubt.

How the values were obtained:
[1] = tested on: native GH3 cell Ca^2+ current; assay: ion channel specificity, native Ca2+ currents; format: cell-based; conditions: GH3 cells
Method: To determine the specificity of the effects of the opener compounds, including BMS-204352, on maxi-K potassium channels, the compounds were tested against a representative sample of cloned and native ion channels expressed in Xenopus oocytes and clonal cell lines and were assayed using standard electrophysiological techniques readily known to and practiced by those having skill in the art. These included voltage-dependent potassium channels (Kv1.3, Kv1.5, Kv2.1), Ca^2+-activated chloride (Cl^−) channels (native oocyte channels), the cystic fibrosis transmembrane conductance regulator Cl^− channel (CFTR) and Ca^2+ currents (native GH3 cell Ca^2+ current).

rat hippocampal tissue = assay: electrically-stimulated [3H]glutamate release from hippocampal tissue wedges in vitro; format: cell-based, rat (Sprague-Dawley); conditions: concentrations between 0.5 nM and 20 μM
[2] = tested on: hippocampal field potentials in area CA1; assay: evoked potentials in hippocampus area CA1 in vivo; set-up: species or system rat (Long-Evans)
cortical infarct volume [3] = assay: permanent MCA occlusion in SHR rat; format: in vivo, spontaneously hypertensive rats (SHR); conditions: several doses between 0.01 and 0.3 mg/kg
cortical infarct volume [4] = assay: PUM,PIC,TCC model of acute stroke in Wistar normotensive rat; format: in vivo
Method: Permanent focal occlusion of the proximal middle cerebral artery (MCA) is performed using a modified version of the method originally developed by A. Tamura et al. (1981, J. Cerebr. Blood Flow Metab., 1:53-60). In the permanent unilateral MCA, permanent ipsilateral common carotid arteries (CCA) and transient contralateral CCA (PUM,PIC,TCC model), normotensive male Wistar rats are anesthetized with a combination of ketamine (40 mg/kg, i.m.) and xylazine (4.5 mg/kg, i.m.). After exposure of the left MCA via the subtemporal approach, a 2 mm section of the artery is electrocauterized and severed. Within 5 minutes, both CCA are exposed and occluded. The left CCA is permanently occluded by 2 suture ligations, and the right CCA is temporarily occluded for 60 minutes with the use of a micro-aneurysm clip.
The contralateral temporary CCA occlusion reduces collateral flow sufficiently to allow for consistent, large cortical infarcts (S. Brint et al., 1988, Cerebr. Blood Flow Metab., 8:474-485). In experiments with spontaneously hypertensive rats (SHR), an identical MCA occlusion is performed, but with no CCA occlusion. Compounds are dissolved in 2% DMSO/98% propylene glycol, and injected as a single IV bolus in the tail vein at the appropriate time point (usually 2 hours after occlusion). Comparisons are made with groups treated with vehicle alone. Groups contain 12-24 animals. Animals are maintained throughout at 37° C. and monitored by means of a rectal probe. At 24 hours after the occlusion, animals are sacrificed and brains are removed and evaluated by triphenyltetrazolium chloride (TTC) staining to determine the area of infarct. Brain slices are photographed and infarct volumes determined with the assistance of computerized image analysis. Data are analyzed using ANOVAs and appropriate post-hoc tests (Dunnett's).

COc1ccc(Cl)cc1[C@]1(F)C(=O)Nc2cc(C(F)(F)F)ccc21 [BMS-204352, (3S)-(+)-(5-Chloro-2-methoxyphenyl)-1,3-dihydro-3-fluoro-6-(trifluoromethyl)-2H-indol-2-one]
concentration-dependent effect on native Ca2+ currents [1]: did not produce a concentration-dependent effect | release of radiolabeled glutamate on field electrical stimulation (rat hippocampal tissue): small but significant reductions | field potential recorded in area CA1 ([2]; IV bolus, 50 ng/kg to 1 mg/kg effective, measured 2 hours after injection): small but significant reductions in the field potential | electrically-evoked hippocampal field potentials in area CA1 ([2]; doses lower than 50 ng/kg and higher than 1.0 mg/kg IV): ineffective | cortical infarct volume (cortical infarct volume [3]): significant reductions in cortical infarct volume | cortical infarct volume (cortical infarct volume [4]; 0.001 μg/kg): not effective | efficacy by time of dosing (cortical infarct volume [4]; 1 mg/kg IV at 1 or 2 hours following occlusion onset): equally effective | cortical infarct volume (cortical infarct volume [4]; 3 mg/kg IV): ineffective | cortical infarct volume (cortical infarct volume [4]; doses between 0.001 and 1 mg/kg, 2 hours after occlusion onset): significant reductions in cortical infarct volume
